Data as given in PubChem BioAssay AID1159584 (Peter MacCallum Cancer Centre, 2016).

Test: 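Knock-downs that harm CDH1-null cells more than parental MCF10A cells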 (primary screen)
Cell system: human MCF10A breast epithelial cells, parental and CDH1-null
Knock-down reagent: siRNA against human genes
Measured: 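Cell viability by CellTiter-Glo ATP luminescence, each line scaled to the mean of mock wells across plates, then CDH1-null over parental ratio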
Reading the numbers: CDH1-null / parental viability ratio: higher = CDH1-null cells survive relatively better than parental; CDH1-null viability vs mock: higher = more viable CDH1-null cells; parental viability vs mock: higher = more viable parental cells
The deposit covers about 18,000 reagents; this is a random part of them. The numbers tell different reagents against one gene apart. Not stated in the record: the amount of reagent, the time to read-out.

The opening 2 records as a preview:
no.	Target gene	reagent	CDH1-null / parental viability ratio	CDH1-null viability vs mock (fraction of mock)	parental viability vs mock (fraction of mock)
1	RABEP2 (GeneID 79874)	1	0.97	0.83	0.86
2	PROS1 (GeneID 5627)	1	0.76	0.61	0.8

Results, from the start:
no.	Target gene	reagent	CDH1-null / parental viability ratio	CDH1-null viability vs mock (fraction of mock)	parental viability vs mock (fraction of mock)
1	RABEP2 (GeneID 79874)	1	0.97	0.83	0.86
2	PROS1 (GeneID 5627)	1	0.76	0.61	0.8
3	KCTD16 (GeneID 57528)	1	0.83	0.72	0.87
4	LYPLAL1 (GeneID 127018)	1	1.07	1.01	0.94
5	IRF6 (GeneID 3664)	1	1.02	0.94	0.92
6	YIPF6 (GeneID 286451)	1	1.24	1.1	0.89
7	PDXDC1 (GeneID 23042)	1	0.94	0.77	0.82
8	PALM2AKAP2 (GeneID 445815)	1	1.28	0.92	0.72
9	PALM2AKAP2 (GeneID 445815)	2	0.96	1.02	1.06
10	PALM2AKAP2 (GeneID 445815)	3	1	0.78	0.78
11	ARFGAP3 (GeneID 26286)	1	0.94	1.02	1.08
12	NBPF7P (GeneID 343505)	1	1.13	0.8	0.71
13	GABRG1 (GeneID 2565)	1	1.2	1.09	0.91
14	HCG9 (GeneID 10255)	1	0.91	0.69	0.76
15	FMNL2 (GeneID 114793)	1	0.94	1.02	1.09
16	OR1E2 (GeneID 8388)	1	1	0.93	0.93
17	DYNLL1 (GeneID 8655)	1	0.93	0.8	0.86
18	FLNC (GeneID 2318)	1	0.9	0.85	0.94
19	KCTD5 (GeneID 54442)	1	1.1	0.92	0.84
20	SYPL2 (GeneID 284612)	1	1	0.88	0.88
21	KIF2C (GeneID 11004)	1	1.07	0.94	0.88
22	BBS4 (GeneID 585)	1	0.96	0.92	0.96
23	GLRX2 (GeneID 51022)	1	1.18	1.18	1
24	PDZD4 (GeneID 57595)	1	0.81	0.56	0.69
25	C1orf56 (GeneID 54964)	1	0.79	0.61	0.77
26	SLC24A5 (GeneID 283652)	1	1.03	0.64	0.62
27	GLRA1 (GeneID 2741)	1	1.23	1	0.81
28	TUBB3 (GeneID 10381)	1	1.17	0.75	0.64
